Earlier results, collected in patent publication US6011000A, “Compositions for the treatment of blood disorders” (priority 1995, dated 2000).
For at least one compound, name, drawing or mass did not settle the structure.

Tested on: Friend leukemia cells
Conditions: cited from earlier work

CC(C)C(=O)O [isobutyrate]
hemoglobin synthesis: induced hemoglobin synthesis
